{
  "sequences": {"note": "Chains of the proteins cited; added tags and fusions are not shown.", "UniProt Q86W56": "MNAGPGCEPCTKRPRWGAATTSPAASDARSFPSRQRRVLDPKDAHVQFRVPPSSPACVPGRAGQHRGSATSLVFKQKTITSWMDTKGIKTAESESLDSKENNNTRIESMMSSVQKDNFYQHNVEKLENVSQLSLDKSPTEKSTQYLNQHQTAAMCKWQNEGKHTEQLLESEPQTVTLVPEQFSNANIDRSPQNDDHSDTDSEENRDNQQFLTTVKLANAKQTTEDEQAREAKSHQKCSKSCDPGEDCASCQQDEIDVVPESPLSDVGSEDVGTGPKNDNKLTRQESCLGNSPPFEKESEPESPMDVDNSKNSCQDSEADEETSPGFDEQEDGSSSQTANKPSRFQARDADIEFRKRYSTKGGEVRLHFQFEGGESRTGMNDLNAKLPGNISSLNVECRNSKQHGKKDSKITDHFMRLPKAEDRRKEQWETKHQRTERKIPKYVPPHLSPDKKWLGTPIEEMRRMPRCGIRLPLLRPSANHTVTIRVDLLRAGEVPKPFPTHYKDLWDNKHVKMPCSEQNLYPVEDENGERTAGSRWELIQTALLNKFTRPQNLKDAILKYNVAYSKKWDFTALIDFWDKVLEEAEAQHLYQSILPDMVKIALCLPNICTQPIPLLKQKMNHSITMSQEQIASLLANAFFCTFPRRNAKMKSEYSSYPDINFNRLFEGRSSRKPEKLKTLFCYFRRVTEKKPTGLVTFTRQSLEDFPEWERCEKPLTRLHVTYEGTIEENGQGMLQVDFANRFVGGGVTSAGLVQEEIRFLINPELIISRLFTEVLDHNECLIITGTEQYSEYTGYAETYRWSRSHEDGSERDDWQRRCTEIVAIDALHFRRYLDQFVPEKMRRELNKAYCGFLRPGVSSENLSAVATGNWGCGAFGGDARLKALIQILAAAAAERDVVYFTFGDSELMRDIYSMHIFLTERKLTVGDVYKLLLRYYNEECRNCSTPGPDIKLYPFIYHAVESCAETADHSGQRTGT", "UniProt Q15796": "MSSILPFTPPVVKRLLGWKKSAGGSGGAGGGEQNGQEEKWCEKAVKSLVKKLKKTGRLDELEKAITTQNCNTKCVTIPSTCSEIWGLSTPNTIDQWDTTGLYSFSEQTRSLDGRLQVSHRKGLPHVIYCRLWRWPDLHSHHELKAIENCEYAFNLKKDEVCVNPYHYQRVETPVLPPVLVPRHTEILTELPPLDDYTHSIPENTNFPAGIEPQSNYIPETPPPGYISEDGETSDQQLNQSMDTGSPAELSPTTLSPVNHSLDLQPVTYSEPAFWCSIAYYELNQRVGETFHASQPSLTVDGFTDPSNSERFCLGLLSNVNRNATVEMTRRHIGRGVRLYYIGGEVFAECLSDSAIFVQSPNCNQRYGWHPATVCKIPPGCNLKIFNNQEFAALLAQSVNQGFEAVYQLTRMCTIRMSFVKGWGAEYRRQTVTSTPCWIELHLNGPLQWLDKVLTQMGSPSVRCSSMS", "UniProt P84022": "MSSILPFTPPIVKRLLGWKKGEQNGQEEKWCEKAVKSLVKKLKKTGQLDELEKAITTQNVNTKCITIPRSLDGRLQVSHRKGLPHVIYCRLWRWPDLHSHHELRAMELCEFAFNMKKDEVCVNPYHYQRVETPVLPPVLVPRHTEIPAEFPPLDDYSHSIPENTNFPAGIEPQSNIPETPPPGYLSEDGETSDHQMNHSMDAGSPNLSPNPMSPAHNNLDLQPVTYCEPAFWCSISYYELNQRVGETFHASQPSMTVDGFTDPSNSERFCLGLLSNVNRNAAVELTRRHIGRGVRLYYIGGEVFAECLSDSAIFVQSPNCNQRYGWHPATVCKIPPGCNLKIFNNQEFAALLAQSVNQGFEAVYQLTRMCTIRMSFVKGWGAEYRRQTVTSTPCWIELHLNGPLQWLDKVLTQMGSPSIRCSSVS"},
  "source": "paper PMC6484711",
  "biological_target": "birA-tagged PARG, full-length 110 kDa wild-type poly (ADP-ribose) glycohydrolase (UniProt Q86W56)",
  "experiment": "proximity labelling; bioID: HEK293T transfected with birA constructs, 50 uM biotin for 18 h, whole cell lysis buffer, biotinylated proteins captured on streptavidin Dynabeads 3 h at 4 C, western blot of PARG and SMAD2/3",
  "note": "These are yes or no findings as the source states them, for the method shown. Binding seen in cells or lysates may run through a third protein. These calls come from enrichment with a bait or labelling near it, and not all partners need be listed.",
  "data": [
    {"substance": "SMAD2 (from UniProt Q15796 1-467)", "values": [
      {"measurement": "binding", "result": "binds"}
    ]},
    {"substance": "SMAD3 (from UniProt P84022 1-425)", "values": [
      {"measurement": "binding", "result": "binds"}
    ]}
  ]
}
